Data as given in PubChem BioAssay AID1259289 (Sanger Institute, 2017).

Test: 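Kinase-wide silencing tested with three anchor drugs to reveal synergistic lethal pairs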 (primary screen)
System: human LS513 colorectal cancer cells
Knock-down reagent: siRNA pool against human genes
Challenge: anchor drug BYL719 at 1 µM, cetuximab at 5 µg/ml or trametinib at 10 nM, or DMSO vehicle alone; exposure time not given
Measurement: 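Survival versus non-targeting pool for each arm averaged over replicates, robust z-score in the arm with DMSO only, and synergy scores for BYL719, cetuximab or trametinib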
Scale: robust z-score, siRNA alone (DMSO): higher = more viable cells; strongly negative means essential; viability with DMSO vs control: higher = more viable cells
Active means: 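a gene counts as active if its DMSO-only robust z-score falls under -3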
Meaning of the calls: active = essential (knock-down alone); inactive = not essential
Shown is one part, drawn at random, of 794 deposited reagents. Of all reagents, 16 (2%) got an active call. 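Active marks cell loss from silencing alone; drug synergy shows only in the synergy scores, not the calls.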 No viability above 1 is reported: the scale is capped. Further read-outs or replicates are left out here. Reagent sequences are not shown. Not given: the amount of reagent, the time to read-out.

HIPK3
- robust z-score, siRNA alone (DMSO): -0.232
- viability with DMSO vs control (fraction of control): 0.887
- call: inactive

PIP4K2B
- robust z-score, siRNA alone (DMSO): 0.255
- viability with DMSO vs control (fraction of control): 0.957
- call: inactive

PACSIN1
- robust z-score, siRNA alone (DMSO): 0.561
- viability with DMSO vs control (fraction of control): 1
- call: inactive

MPP3
- robust z-score, siRNA alone (DMSO): -1.02
- viability with DMSO vs control (fraction of control): 0.775
- call: inactive

PRKCE
- robust z-score, siRNA alone (DMSO): 0.373
- viability with DMSO vs control (fraction of control): 0.973
- call: inactive

CHEK2
- robust z-score, siRNA alone (DMSO): 0.561
- viability with DMSO vs control (fraction of control): 1
- call: inactive

RPS6KA4
- robust z-score, siRNA alone (DMSO): -0.0162
- viability with DMSO vs control (fraction of control): 0.918
- call: inactive

PDK1
- robust z-score, siRNA alone (DMSO): 0.561
- viability with DMSO vs control (fraction of control): 1
- call: inactive

STK16
- robust z-score, siRNA alone (DMSO): 0.561
- viability with DMSO vs control (fraction of control): 1
- call: inactive

STK31
- robust z-score, siRNA alone (DMSO): -0.799
- viability with DMSO vs control (fraction of control): 0.807
- call: inactive

SCYL1
- robust z-score, siRNA alone (DMSO): 0.561
- viability with DMSO vs control (fraction of control): 1
- call: inactive

CUL1
- robust z-score, siRNA alone (DMSO): 0.561
- viability with DMSO vs control (fraction of control): 1
- call: inactive

ACVR1C
- robust z-score, siRNA alone (DMSO): 0.561
- viability with DMSO vs control (fraction of control): 1
- call: inactive

MAST4
- robust z-score, siRNA alone (DMSO): 0.561
- viability with DMSO vs control (fraction of control): 1
- call: inactive

MUSK
- robust z-score, siRNA alone (DMSO): -2.3
- viability with DMSO vs control (fraction of control): 0.594
- call: inactive

TAF1
- robust z-score, siRNA alone (DMSO): -0.249
- viability with DMSO vs control (fraction of control): 0.885
- call: inactive

LYN
- robust z-score, siRNA alone (DMSO): 0.561
- viability with DMSO vs control (fraction of control): 1
- call: inactive

KMT2B
- robust z-score, siRNA alone (DMSO): 0.561
- viability with DMSO vs control (fraction of control): 1
- call: inactive

ACVR2A
- robust z-score, siRNA alone (DMSO): 0.561
- viability with DMSO vs control (fraction of control): 1
- call: inactive

MINK1
- robust z-score, siRNA alone (DMSO): -1.42
- viability with DMSO vs control (fraction of control): 0.718
- call: inactive

NEK6
- robust z-score, siRNA alone (DMSO): 0.561
- viability with DMSO vs control (fraction of control): 1
- call: inactive

PRPS1
- robust z-score, siRNA alone (DMSO): 0.561
- viability with DMSO vs control (fraction of control): 1
- call: inactive

MYLK2
- robust z-score, siRNA alone (DMSO): -0.175
- viability with DMSO vs control (fraction of control): 0.896
- call: inactive

PAK4
- robust z-score, siRNA alone (DMSO): 0.561
- viability with DMSO vs control (fraction of control): 1
- call: inactive

CSF1R
- robust z-score, siRNA alone (DMSO): -1.96
- viability with DMSO vs control (fraction of control): 0.642
- call: inactive

PPP2R1A
- robust z-score, siRNA alone (DMSO): 0.561
- viability with DMSO vs control (fraction of control): 1
- call: inactive

PAK5
- robust z-score, siRNA alone (DMSO): -1.25
- viability with DMSO vs control (fraction of control): 0.743
- call: inactive

CLK1
- robust z-score, siRNA alone (DMSO): 0.561
- viability with DMSO vs control (fraction of control): 1
- call: inactive
